{
  "source": "patent US20220089602A1",
  "about": "“COMPOUNDS THAT INDUCE FERROPTIC CELL DEATH” (The Board of Trustees of the University of Illinois, priority 2019, published 2022)",
  "assay_in_all_cases": "Protection studies against ferroptocide-induced cell death, AV/PI",
  "type_in_all_cases": "cell-based",
  "conditions_in_all_cases": "pre-treatment with protecting agent",
  "key": {"A549 cells": {"tested_on": "A549 cells", "description": "(§1) ES-2, HCT 116, Mia PaCa-2, A549, and 4T1 cells (1×10^5 cells/mL) were plated overnight in 12 well plates, prior to addition of compounds. For protection studies, samples were pre-treated with each protecting agent such as 25 μM Q-VD-OPh, 250 μM trolox, 2 μM ferrostatin-1, 5 mM NAC-1 (neutralized pH), or 100 μM deferoxamine (DFO) for two hours or 1 hr (NAC-1) before compound addition. Cells were incubated for the appropriate times and harvested for flow cytometry analysis. Cell pellets were resuspended in binding buffer (10 mM HEPES, pH 7.4, 140 mM NaCl, 2.5 mM CaCl2) containing 2 μg/mL propidium iodide and 5 μL/mL Annexin V-FITC conjugate antibody and analyzed for cell viability after gating for forward and side scattering. Ten thousand events were collected per sample in BD LSR II Flow Cytometer (BD Bioscience) and FCS express V6, De Novo software was used to perform experimental analysis."}, "ES-2 cells": {"tested_on": "ES-2 cells", "description": "as §1"}, "HCT 116 cells": {"tested_on": "HCT 116 cells", "description": "Cells were incubated for the appropriate times and harvested for flow cytometry analysis. Cell pellets were resuspended in binding buffer (10 mM HEPES, pH 7.4, 140 mM NaCl, 2.5 mM CaCl2) containing 2 μg/mL propidium iodide and 5 μL/mL Annexin V-FITC conjugate antibody and analyzed for cell viability after gating for forward and side scattering. Ten thousand events were collected per sample in BD LSR II Flow Cytometer (BD Bioscience) and FCS express V6, De Novo software was used to perform experimental analysis."}},
  "note": "At least one structure is not confirmed: it was looked up by name or label, or the drawing left a doubt.",
  "data": [
    {"smiles": "CC(=O)N(O)CCCCCNC(=O)CCC(=O)N(O)CCCCCNC(=O)CCC(=O)N(O)CCCCCN", "note": "[DFO, deferoxamine]", "values": [
      {"measurement": "protection against ferroptocide-induced cell death", "setting": "A549 cells", "value": "significantly protected against ferroptocide-induced cell death"},
      {"measurement": "protection against ferroptocide-induced cell death", "setting": "ES-2 cells", "value": "significantly protected against ferroptocide-induced cell death"},
      {"measurement": "protection against ferroptocide-induced cell death", "setting": "HCT 116 cells", "value": "significantly protected against ferroptocide-induced cell death"}
    ]}
  ]
}
